In publication doi:10.1101/2024.01.24.577082:
Results are given in words; binding and its absence hold for the method and conditions named. Some results given as binding are weak or reduced against the parent protein; the word gives no strength.

B1: CESA1 (enzyme, UniProt O48946 1-1081)
chain: MEASAGLVAGSYRRNELVRIRHESDGGTKPLKNMNGQICQICGDDVGLAETGDVFVACNECAFPVCRPCYEYERKDGTQCCPQCKTRFRRHRGSPRVEGDEDEDDVDDIENEFNYAQGANKARHQRHGEEFSSSSRHESQPIPLLTHGHTVSGEIRTPDTQSVRTTSGPLGPSDRNAISSPYIDPRQPVPVRIVDPSKDLNSYGLGNVDWKERVEGWKLKQEKNMLQMTGKYHEGKGGEIEGTGSNGEELQMADDTRLPMSRVVPIPSSRLTPYRVVIILRLIILCFFLQYRTTHPVKNAYPLWLTSVICEIWFAFSWLLDQFPKWYPINRETYLDRLAIRYDRDGEPSQLVPVDVFVSTVDPLKEPPLVTANTVLSILSVDYPVDKVACYVSDDGSAMLTFESLSETAEFAKKWVPFCKKFNIEPRAPEFYFAQKIDYLKDKIQPSFVKERRAMKREYEEFKVRINALVAKAQKIPEEGWTMQDGTPWPGNNTRDHPGMIQVFLGHSGGLDTDGNELPRLIYVSREKRPGFQHHKKAGAMNALIRVSAVLTNGAYLLNVDCDHYFNNSKAIKEAMCFMMDPAIGKKCCYVQFPQRFDGIDLHDRYANRNIVFFDINMKGLDGIQGPVYVGTGCCFNRQALYGYDPVLTEEDLEPNIIVKSCCGSRKKGKSSKKYNYEKRRGINRSDSNAPLFNMEDIDEGFEGYDDERSILMSQRSVEKRFGQSPVFIAATFMEQGGIPPTTNPATLLKEAIHVISCGYEDKTEWGKEIGWIYGSVTEDILTGFKMHARGWISIYCNPPRPAFKGSAPINLSDRLNQVLRWALGSIEILLSRHCPIWYGYHGRLRLLERIAYINTIVYPITSIPLIAYCILPAFCLITDRFIIPEISNYASIWFILLFISIAVTGILELRWSGVSIEDWWRNEQFWVIGGTSAHLFAVFQGLLKVLAGIDTNFTVTSKATDEDGDFAELYIFKWTALLIPPTTVLLVNLIGIVAGVSYAVNSGYQSWGPLFGKLFFALWVIAHLYPFLKGLLGRQNRTPTIVIVWSVLLASIFSLLWVRINPFVDANPNANNFNGKGGVF
B2: CESA2 (enzyme, UniProt O48947 1-1084)
chain: MNTGGRLIAGSHNRNEFVLINADESARIRSVQELSGQTCQICGDEIELTVSSELFVACNECAFPVCRPCYEYERREGNQACPQCKTRYKRIKGSPRVDGDDEEEEDIDDLEYEFDHGMDPEHAAEAALSSRLNTGRGGLDSAPPGSQIPLLTYCDEDADMYSDRHALIVPPSTGYGNRVYPAPFTDSSAPPQARSMVPQKDIAEYGYGSVAWKDRMEVWKRRQGEKLQVIKHEGGNNGRGSNDDDELDDPDMPMMDEGRQPLSRKLPIRSSRINPYRMLILCRLAILGLFFHYRILHPVNDAYGLWLTSVICEIWFAVSWILDQFPKWYPIERETYLDRLSLRYEKEGKPSGLAPVDVFVSTVDPLKEPPLITANTVLSILAVDYPVDKVACYVSDDGAAMLTFEALSDTAEFARKWVPFCKKFNIEPRAPEWYFSQKMDYLKNKVHPAFVRERRAMKRDYEEFKVKINALVATAQKVPEEGWTMQDGTPWPGNNVRDHPGMIQVFLGHSGVRDTDGNELPRLVYVSREKRPGFDHHKKAGAMNSLIRVSAVLSNAPYLLNVDCDHYINNSKAIRESMCFMMDPQSGKKVCYVQFPQRFDGIDRHDRYSNRNVVFFDINMKGLDGIQGPIYVGTGCVFRRQALYGFDAPKKKKPPGKTCNCWPKWCCLCCGLRKKSKTKAKDKKTNTKETSKQIHALENVDEGVIVPVSNVEKRSEATQLKLEKKFGQSPVFVASAVLQNGGVPRNASPACLLREAIQVISCGYEDKTEWGKEIGWIYGSVTEDILTGFKMHCHGWRSVYCMPKRAAFKGSAPINLSDRLHQVLRWALGSVEIFLSRHCPIWYGYGGGLKWLERFSYINSVVYPWTSLPLIVYCSLPAVCLLTGKFIVPEISNYAGILFMLMFISIAVTGILEMQWGGVGIDDWWRNEQFWVIGGASSHLFALFQGLLKVLAGVNTNFTVTSKAADDGAFSELYIFKWTTLLIPPTTLLIINIIGVIVGVSDAISNGYDSWGPLFGRLFFALWVIVHLYPFLKGMLGKQDKMPTIIVVWSILLASILTLLWVRVNPFVAKGGPVLEICGLNCGN
B3: CESA3 (enzyme, UniProt Q941L0 1-1065)
chain: MESEGETAGKPMKNIVPQTCQICSDNVGKTVDGDRFVACDICSFPVCRPCYEYERKDGNQSCPQCKTRYKRLKGSPAIPGDKDEDGLADEGTVEFNYPQKEKISERMLGWHLTRGKGEEMGEPQYDKEVSHNHLPRLTSRQDTSGEFSAASPERLSVSSTIAGGKRLPYSSDVNQSPNRRIVDPVGLGNVAWKERVDGWKMKQEKNTGPVSTQAASERGGVDIDASTDILADEALLNDEARQPLSRKVSIPSSRINPYRMVIMLRLVILCLFLHYRITNPVPNAFALWLVSVICEIWFALSWILDQFPKWFPVNRETYLDRLALRYDREGEPSQLAAVDIFVSTVDPLKEPPLVTANTVLSILAVDYPVDKVSCYVSDDGAAMLSFESLAETSEFARKWVPFCKKYSIEPRAPEWYFAAKIDYLKDKVQTSFVKDRRAMKREYEEFKIRINALVSKALKCPEEGWVMQDGTPWPGNNTRDHPGMIQVFLGQNGGLDAEGNELPRLVYVSREKRPGFQHHKKAGAMNALVRVSAVLTNGPFILNLDCDHYINNSKALREAMCFLMDPNLGKQVCYVQFPQRFDGIDKNDRYANRNTVFFDINLRGLDGIQGPVYVGTGCVFNRTALYGYEPPIKVKHKKPSLLSKLCGGSRKKNSKAKKESDKKKSGRHTDSTVPVFNLDDIEEGVEGAGFDDEKALLMSQMSLEKRFGQSAVFVASTLMENGGVPPSATPENLLKEAIHVISCGYEDKSDWGMEIGWIYGSVTEDILTGFKMHARGWRSIYCMPKLPAFKGSAPINLSDRLNQVLRWALGSVEILFSRHCPIWYGYNGRLKFLERFAYVNTTIYPITSIPLLMYCTLPAVCLFTNQFIIPQISNIASIWFLSLFLSIFATGILEMRWSGVGIDEWWRNEQFWVIGGVSAHLFAVFQGILKVLAGIDTNFTVTSKASDEDGDFAELYLFKWTTLLIPPTTLLIVNLVGVVAGVSYAINSGYQSWGPLFGKLFFAFWVIVHLYPFLKGLMGRQNRTPTIVVVWSVLLASIFSLLWVRIDPFTSRVTGPDILECGINC
B4: CESA4 (enzyme, UniProt Q84JA6 1-1049)
chain: MEPNTMASFDDEHRHSSFSAKICKVCGDEVKDDDNGQTFVACHVCVYPVCKPCYEYERSNGNKCCPQCNTLYKRHKGSPKIAGDEENNGPDDSDDELNIKYRQDGSSIHQNFAYGSENGDYNSKQQWRPNGRAFSSTGSVLGKDFEAERDGYTDAEWKERVDKWKARQEKRGLVTKGEQTNEDKEDDEEEYLDAEARQPLWRKVPISSSKISPYRIVIVLRLVILVFFFRFRILTPAKDAYPLWLISVICEIWFALSWILDQFPKWFPINRETYLDRLSMRFERDGEKNKLAPVDVFVSTVDPLKEPPIITANTILSILAVDYPVNKVSCYVSDDGASMLLFDTLSETSEFARRWVPFCKKYNVEPRAPEFYFSEKIDYLKDKVQTTFVKDRRAMKREYEEFKVRINALVAKAQKKPEEGWVMQDGTPWPGNNTRDHPGMIQVYLGKEGAFDIDGNELPRLVYVSREKRPGYAHHKKAGAMNAMVRVSAVLTNAPFMLNLDCDHYINNSKAIRESMCFLMDPQLGKKLCYVQFPQRFDGIDLNDRYANRNIVFFDINMRGLDGIQGPVYVGTGCVFNRPALYGYEPPVSEKRKKMTCDCWPSWICCCCGGGNRNHKSDSSKKKSGIKSLFSKLKKKTKKKSDDKTMSSYSRKRSSTEAIFDLEDIEEGLEGYDELEKSSLMSQKNFEKRFGMSPVFIASTLMENGGLPEATNTSSLIKEAIHVISCGYEEKTEWGKEIGWIYGSVTEDILTGFRMHCRGWKSVYCMPKRPAFKGSAPINLSDRLHQVLRWALGSVEIFFSRHCPLWYAWGGKLKILERLAYINTIVYPFTSIPLLAYCTIPAVCLLTGKFIIPTINNFASIWFLALFLSIIATAILELRWSGVSINDLWRNEQFWVIGGVSAHLFAVFQGLLKVLFGVDTNFTVTSKGASDEADEFGDLYLFKWTTLLIPPTTLIILNMVGVVAGVSDAINNGYGSWGPLFGKLFFAFWVIVHLYPFLKGLMGRQNRTPTIVVLWSILLASIFSLVWVRIDPFLPKQTGPLLKQCGVDC

What follows are binders tested against T1, PHOSPHATE-INDUCED 1 (Arabidopsis thaliana) (UniProt Q9C6E4) (assay: two-hybrid).
T1 sequence: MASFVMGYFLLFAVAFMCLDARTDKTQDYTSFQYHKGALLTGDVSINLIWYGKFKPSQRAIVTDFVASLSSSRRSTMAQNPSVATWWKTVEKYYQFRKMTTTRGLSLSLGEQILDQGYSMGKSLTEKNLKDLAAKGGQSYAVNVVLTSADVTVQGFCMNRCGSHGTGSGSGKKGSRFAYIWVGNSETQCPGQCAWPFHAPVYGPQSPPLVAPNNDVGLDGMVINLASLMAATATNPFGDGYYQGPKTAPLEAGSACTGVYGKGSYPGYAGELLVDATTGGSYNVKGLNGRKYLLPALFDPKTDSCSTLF

binding, binds:
B1
B2
B3
B4
